Laboratory results as given in PubChem BioAssay AID1347076 (National Center for Advancing Translational Sciences (NCATS), 2019).
The campaign covered roughly 400,000 compounds. About 13,000 (3.2%) were called active. The shares of active, inactive and inconclusive entries below differ from those in the screen. Calls follow the shape of the dose curve; as a rule, active = well fitted cell-killing curve with a large enough effect; inconclusive = small, poorly fitted or top-dose-only effect, or effect the other way; inactive = flat fitted curve, though single readings scatter. Potencies of inconclusive entries are doubtful fits and often do not repeat.

Assay: qHTS assay for MDR1-selective chemotherapeutics: Primary screen using the drug-selected MDR subline cells KB-V1; also: nearly all actives have a fitted effect of over 60% in size
Conditions: KB-V1 MDR cells viability, CellTiter-Glo, 72 h; activity change, negative = cytotoxicity: at 46.1 µM (top of the series)
Summary of the method: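 Cytotoxicity via CellTiter-Glo luminescence after 72 h compound exposure at 37 degrees C. Cells: drug-selected KB-V1 line, DMEM phenol-red free plus 10% FBS. Compounds tested at multiple concentrations; normalized data fitted to concentration-effect curves.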
% is scaled to controls: 0 for no effect and ±100 for the full control effect; potency is read from the fitted curve at half-maximal effect.

Structure (SMILES)	activity change, negative = cytotoxicity	Potency
O=C(c1ccc2ccccc2n1)N1CCN(Cc2c(F)cccc2Cl)CC1	inactive: -11.7%	
COc1ccc(NC(=O)C(NC(=O)Cc2cccs2)c2ccccc2)cc1 (stereo unspecified)		active: 11.6 µM
CC1CCN(C(=O)C2CCN(S(=O)(=O)c3cccs3)CC2)CC1		inconclusive: 11.6 µM [cytotoxic, partial curve]
CC(C)(C)c1ccc(C(=O)NC(=S)NCc2cccnc2)cc1		inconclusive: 20.6 µM [cytotoxic, single point]
CC[C@H](C)[C@H]1O[C@]2(CC[C@@H]1C)C[C@@H]1C[C@@H](CC=C(C)[C@@H](O[C@H]3C[C@H](OC)[C@@H](O[C@H]4C[C@H](OC)[C@@H](O)[C@H](C)O4)[C@H](C)O3)[C@@H](C)C=CC=C3CO[C@@H]4[C@H](O)C(C)=C[C@@H](C(=O)O1)[C@]34O)O2		active: 23.1 µM
CC(=O)Nc1ccc(NC(=O)COC(=O)COc2ccc3ccccc3c2)cc1		inconclusive: 29.1 µM [rising, single point]
Cc1ccc(OCC(=O)NC(=S)Nc2cccc(NC(=O)c3ccc(Cl)cc3Cl)c2)cc1		inconclusive: 20.6 µM [cytotoxic, single point]
Cc1ccc(N2CN=C(c3ccccc3)NC2=S)cc1		inconclusive: 20.6 µM [cytotoxic, single point]
COc1ccc(S(=O)(=O)Oc2cccc(C(=S)N3CCOCC3)c2)cc1		inconclusive: 13 µM [cytotoxic, partial curve]
COc1ccc2nc(Nc3ccccc3)sc2c1		inconclusive: 29.1 µM [cytotoxic, single point]
Cc1cc(N2CCN(S(=O)(=O)c3ccc(Cl)cc3)CC2)c2ccccc2n1		active: 18.4 µM
O=C(NCCCN1CCOCC1)C1COc2ccccc2O1 (stereo unspecified)		inconclusive: 29.1 µM [rising, single point]
O=C(c1ccc(S(=O)(=O)N2CCCCC2)cc1)N1CCc2ccccc2C1		inconclusive: 25.9 µM [cytotoxic, partial curve, poor fit]
CCn1c(=O)c(CCC(=O)NCCN2CCOCC2)c(C)c2c(C)nn(-c3ccccc3)c21		inconclusive: 2.31 µM [cytotoxic, partial curve, poor fit]
O=C(CSc1ncccn1)NCC1CCCO1 (stereo unspecified)		inconclusive: 29.1 µM [rising, single point]
CCOC(=O)c1c(NC(=S)Nc2cccc(C)c2)sc2c1CC(C)(C)SC2		inconclusive: 29.1 µM [cytotoxic, single point]
COc1ccc(CN(C(=O)c2cc3ccccc3oc2=O)C2CCS(=O)(=O)C2)cc1OC (stereo unspecified)		inconclusive: 29.1 µM [rising, single point]
O=C(Nc1ccccc1OC(F)F)c1ccc(S(=O)(=O)N2CCCC2)cc1		inconclusive: 25.9 µM [cytotoxic, partial curve]
Cc1cccc(NC(=S)N2CCN(Cc3ccccc3)CC2)c1C	inactive: 15.6%	
CC1CCCCN1C(=O)Cn1ncc2c3ccccc3n(Cc3ccccc3F)c2c1=O (stereo unspecified)		inconclusive: 14.6 µM [cytotoxic, single point]
COc1ccc(C(=O)Nc2ccc3oc(-c4ccc(F)cc4Cl)nc3c2)cc1		inconclusive: 5.17 µM [cytotoxic, full curve]
O=C(NC1CCCC1)c1cccc(S(=O)(=O)N2CCCCC2)c1		inconclusive: 18.4 µM [cytotoxic, partial curve]

Structure (SMILES)	activity change, negative = cytotoxicity	Potency
Cc1ccccc1NCC(=O)N/N=C/c1c(C)c(C(=O)c2ccc(Cl)cc2)n2ccccc12		inconclusive: 8.2 µM [cytotoxic, partial curve]
Cc1ccc(NC(=O)Cn2cnc([N+](=O)[O-])c2)cc1C		inconclusive: 25.9 µM [rising, single point]
COc1ccc(-n2c(SCC(=O)N3CCc4ccccc43)nc3c([nH]c4ccccc43)c2=O)cc1		inconclusive: 14.6 µM [rising, partial curve]
COc1ccc(S(=O)Cc2ccc(C(=O)N3CCN(C(=O)c4ccco4)CC3)o2)cc1 (stereo unspecified)		inconclusive: 5.8 µM [rising, partial curve]
CCOC(=O)C(=CNc1cc(OC)ccc1-n1cccc1)C(=O)OCC		inconclusive: 2.91 µM [cytotoxic, partial curve, poor fit]
COC(=O)c1c(NC(=O)c2nc3ccccc3s2)sc2c1CCN(C(C)=O)C2		inconclusive: 29.1 µM [cytotoxic, single point]
CC1(C)CC(=O)C2=C(C1)Nc1ncnn1C2c1cccs1 (stereo unspecified)		inconclusive: 25.9 µM [rising, single point]
Cc1ccc(CN(CC(=O)NC2CCCCC2)C(=O)c2csnn2)cc1	inconclusive: 0%	
O=C(NCc1ccc2c(c1)OCO2)c1nc(Cn2cc(Br)cn2)no1	inactive: 8.87%	
CSc1ccc(/C=N/NC(=O)c2ccccc2Cl)cc1		inconclusive: 29.1 µM [cytotoxic, single point]
CCc1ccc(CNC(=O)c2cc3ccccn3n2)cc1	inactive: 15.7%	
COc1ccc(C2C(C(=O)Nc3ccc(Cl)cc3)=C(C)Nc3nc(SCc4cccc(C)c4)nn32)cc1OC (stereo unspecified)		inconclusive: 14.6 µM [rising, partial curve, poor fit]
N/C(=N\OC(=O)c1ccccc1)c1ccn[nH]1	inactive: 28.5%	
Cc1cc(C)c(C(=O)NC2CCCc3c2cnn3-c2ccc(C)c(C)c2)c(=O)[nH]1 (stereo unspecified)		inconclusive: 16.4 µM [cytotoxic, single point]
COc1ccc(Nc2nc(-c3cccs3)nc3ccccc23)c(OC)c1		inconclusive: 16.4 µM [cytotoxic, single point]
COc1cc(OC)c(-c2nn3c(-c4ccco4)nnc3s2)cc1OC		inconclusive: 1.64 µM [cytotoxic, full curve]
COCCNC(=O)C1(C)Cc2c(-c3ccc4c(c3)OCO4)ccnc2O1 (stereo unspecified)	inactive: -26.7%	
CCN(CCCc1ccccc1)CCCc1ccccc1		inconclusive: 7.31 µM [cytotoxic, partial curve]
COc1ccccc1CNc1cc(C)nc2nc(-c3ccc(C)cc3)nn12		inconclusive: 13 µM [cytotoxic, partial curve]
COCCN(Cc1ccccc1)C(=O)c1cc(-c2ccc(OC)c(OC)c2)nc2ccccc12		inconclusive: 8.2 µM [cytotoxic, partial curve, poor fit]
COC(=O)/C(C#N)=C/c1c(Oc2cc(C)cc(C)c2)nc2ccccn2c1=O		inconclusive: 1.84 µM [rising, full curve, poor fit]
COc1ccc(-c2nc(C)c(CCNC(=O)c3cccs3)s2)cc1OC		inconclusive: 8.2 µM [cytotoxic, partial curve]

An excerpt of these results, field by field:
CCOC(=O)C(=CNc1cc(OC)ccc1-n1cccc1)C(=O)OCC
  Potency: inconclusive: 2.91 µM [cytotoxic, partial curve, poor fit]
COC(=O)c1c(NC(=O)c2nc3ccccc3s2)sc2c1CCN(C(C)=O)C2
  Potency: inconclusive: 29.1 µM [cytotoxic, single point]

Later entries

Structure (SMILES)	activity change, negative = cytotoxicity	Potency
COc1ccccc1NC(=O)CCc1nc(-c2cccs2)no1	inactive: 11.3%	
Cc1cccc(C(=O)NCC(c2cccs2)N2CCOCC2)c1 (stereo unspecified)	inactive: -19.2%	
Cc1ccc(C2=NN(CC(=O)NCc3ccccn3)C(=O)CC2)cc1		inconclusive: 32.6 µM [rising, single point]
Cc1cccc(Cn2c(Sc3nc(C)cs3)nc3c2c(=O)[nH]c(=O)n3C)c1		active: 4.11 µM
CCOc1ccccc1C1CC(=O)Nc2cc(OC)c(OC)cc21 (stereo unspecified)		inconclusive: 8.2 µM [cytotoxic, partial curve]
C/C=C(/CCC1NCCc2c1[nH]c1ccccc21)[Si](C)(C)C (stereo unspecified)		active: 11.6 µM
Cc1cc(C(=O)N/N=C2\CC(=O)CC(C)(C)C2)c(C)n1-c1ccccc1		inconclusive: 29.1 µM [rising, single point]
COc1ccc(/C=C/C(=O)c2c(C)nc3ccccn23)cc1		inconclusive: 2.59 µM [cytotoxic, partial curve, poor fit]
COCCNC(=S)N/N=C(\C)c1ccc2cc(OC)ccc2c1	inactive: -23.7%	
COc1ccc2nc(N3CCCCC3)c(C#N)cc2c1		inconclusive: 25.9 µM [cytotoxic, partial curve, poor fit]
Cc1ccc2[nH]c(=O)c(CN(CCO)Cc3nnnn3Cc3ccco3)cc2c1		inconclusive: 9.2 µM [rising, partial curve, poor fit]
CCOC(=O)N1CCN(Cc2cn[nH]c2-c2cccc3ccccc23)CC1		inconclusive: 10.3 µM [cytotoxic, partial curve, poor fit]
O=C(N/N=C/c1ccc(-n2ccnc2)cc1)c1cccs1		inconclusive: 16.4 µM [rising, single point]
CCn1c(SCC(=O)NNC(=O)c2ccc(C)cc2)nnc1C1CC1		inconclusive: 29.1 µM [rising, single point]
Cc1cc(Cl)ccc1OCC(=O)OCC(=O)Nc1ccc(F)c([N+](=O)[O-])c1		inconclusive: 3.66 µM [cytotoxic, partial curve, poor fit]
CC(=O)CSc1ncnc2nc[nH]c12	inactive: 21.4%	
Cc1ccc(CNc2oc(-c3ccc(COc4ccc(C)cc4)o3)nc2C#N)cc1	inactive: -21.4%	
CCCOc1ccc(C(=O)NCC2OCCc3ccccc32)cc1 (stereo unspecified)		inconclusive: 23.1 µM [cytotoxic, single point]
Nc1ccccc1-c1nnc(-c2ccc(-c3ccccc3)cc2)o1		inconclusive: 23.1 µM [cytotoxic, single point]
c1ccc(-c2n[nH]c(-c3ccccn3)n2)cc1		inconclusive: 8.2 µM [cytotoxic, partial curve]
NC(=O)NN=C1C2CCCC1C(c1ccccc1)NC2c1ccccc1 (stereo unspecified)		inconclusive: 7.31 µM [cytotoxic, partial curve]
CC(C)Cc1nnc(NC(=O)C23CC4CC(CC(C4)C2)C3)s1	inactive: 11.4%	
